Assay results from patent publication US20210106700A1, “Fractionated Dosing of a Phospholipid Ether Analog for the Treatment of Cancer” (Cellectar Biosciences, Inc., priority 2018, published 2021).
At least one compound was matched to its structure with a doubt left.

Test system: cancer cells and cancer stem cells
Assay: Tumor selectivity and retention in xenograft, orthotopic, transgenic and spontaneous tumor models
Format: in vivo
Settings: variety of tumor models

C[N+](C)(C)CCOP(=O)([O-])OCCCCCCCCCCCCCCCCCCc1ccc(I)cc1 [CLR1404, 18-(p-iodo-phenyl)octadecyl phosphocholine]
Retention by cancer cells and cancer stem cells: sequestered and selectively retained
